No constants are given. Whether binding was seen depends on the method and setting. In cells and extracts the contact can be indirect. Some results given as binding are weak or reduced against the parent protein; the word gives no strength. Tags and fused reporters may be left off the sequences shown.
B1: MYC-tagged PTF1A (protein, UniProt Q9QX98 1-324)
chain: MDAVLLEHFPGGLDTFPSPYFDEEDFFTDQSSRDPLEDSDELLGDEQAEVEFLSHQLHEYCYRDGACLLLQPAPSAAPHALAPPPLGDPGEPEDNVSYCCDAGAPLAAFPYSPGSPPSCLAYPCAAVLSPGARLGGLNGAAAAAAARRRRRVRSEAELQQLRQAANVRERRRMQSINDAFEGLRSHIPTLPYEKRLSKVDTLRLAIGYINFLSELVQADLPLRGSGAGGCGGPGGSRHLGEDSPGNQAQKVIICHRGTRSPSPSDPDYGLPPLAGHSLSWTDEKQLKEQNIIRTAKVWTPEDPRKLNSKSFDNIENEPPFEFVS
B2: MYC-tagged ASCL1 (protein, UniProt Q02067 1-231)
chain: MESSGKMESGAGQQPQPPQPFLPPAACFFATAAAAAAAAAAAAQSAQQQQPQAPPQQAPQLSPVADSQPSGGGHKSAAKQVKRQRSSSPELMRCKRRLNFSGFGYSLPQQQPAAVARRNERERNRVKLVNLGFATLREHVPNGAANKKMSKVETLRSAVEYIRALQQLLDEHDAVSAAFQAGVLSPTISPNYSNDLNSMAGSPVSSYSSDEGSYDPLSPEEQELLDFTNWF
B3: MYC-tagged NEUROG1 (protein, UniProt P70660 1-244)
chain: MPAPLETCISDLDCSSSNSSSDLSSFLTDEEDCARLQPLASTSGLSVPARRSAPALSGASNVPGAQDEEQERRRRRGRARVRSEALLHSLRRSRRVKANDRERNRMHNLNAALDALRSVLPSFPDDTKLTKIETLRFAYNYIWALAETLRLADQGLPGGSARERLLPPQCVPCLPGPPSPASDTESWGSGAAASPCATVASPLSDPSSPSASEDFTYGPGDPLFSFPGLPKDLLHTTPCFIPYH

Chains of the proteins cited; added tags and fusions are not shown.
UniProt E9PZZ1: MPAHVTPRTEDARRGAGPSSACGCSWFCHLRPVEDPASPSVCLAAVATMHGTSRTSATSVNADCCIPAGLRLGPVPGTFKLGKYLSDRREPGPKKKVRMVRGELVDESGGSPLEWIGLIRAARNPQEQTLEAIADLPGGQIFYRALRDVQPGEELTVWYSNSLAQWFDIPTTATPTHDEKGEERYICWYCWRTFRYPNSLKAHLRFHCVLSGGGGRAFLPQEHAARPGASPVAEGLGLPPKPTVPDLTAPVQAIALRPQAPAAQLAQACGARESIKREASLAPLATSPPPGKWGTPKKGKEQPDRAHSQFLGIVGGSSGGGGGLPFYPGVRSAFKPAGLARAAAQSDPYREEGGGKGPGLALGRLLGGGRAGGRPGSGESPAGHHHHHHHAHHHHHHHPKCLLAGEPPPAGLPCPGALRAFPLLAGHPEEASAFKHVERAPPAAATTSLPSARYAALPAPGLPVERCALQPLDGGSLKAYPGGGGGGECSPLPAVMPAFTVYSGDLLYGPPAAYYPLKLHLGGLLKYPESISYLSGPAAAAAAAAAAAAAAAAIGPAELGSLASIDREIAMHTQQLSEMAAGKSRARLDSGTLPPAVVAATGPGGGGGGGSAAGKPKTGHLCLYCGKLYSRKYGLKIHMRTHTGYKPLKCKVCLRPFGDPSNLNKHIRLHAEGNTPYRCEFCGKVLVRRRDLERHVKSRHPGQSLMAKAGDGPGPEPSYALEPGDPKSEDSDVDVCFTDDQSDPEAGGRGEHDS

Molecular target: FLAG-tagged PRDM13 (UniProt E9PZZ1)
Assay: co-IP; HEK293 cells transfected with PRDM13^FLAG and the other factor, total cell lysate in IP lysis buffer after 48 hr; A/G beads conjugated with anti-FLAG antibodies; Western blots with anti-cMYC, anti-FLAG, anti-NEUROG1 or anti-NEUROG2

binding, binds:
B1, B2, B3
